{
  "sequences": {"note": "Amino acid sequences for entries named in this document (tags omitted).", "UniProt Q14191, whole entry, looked up": "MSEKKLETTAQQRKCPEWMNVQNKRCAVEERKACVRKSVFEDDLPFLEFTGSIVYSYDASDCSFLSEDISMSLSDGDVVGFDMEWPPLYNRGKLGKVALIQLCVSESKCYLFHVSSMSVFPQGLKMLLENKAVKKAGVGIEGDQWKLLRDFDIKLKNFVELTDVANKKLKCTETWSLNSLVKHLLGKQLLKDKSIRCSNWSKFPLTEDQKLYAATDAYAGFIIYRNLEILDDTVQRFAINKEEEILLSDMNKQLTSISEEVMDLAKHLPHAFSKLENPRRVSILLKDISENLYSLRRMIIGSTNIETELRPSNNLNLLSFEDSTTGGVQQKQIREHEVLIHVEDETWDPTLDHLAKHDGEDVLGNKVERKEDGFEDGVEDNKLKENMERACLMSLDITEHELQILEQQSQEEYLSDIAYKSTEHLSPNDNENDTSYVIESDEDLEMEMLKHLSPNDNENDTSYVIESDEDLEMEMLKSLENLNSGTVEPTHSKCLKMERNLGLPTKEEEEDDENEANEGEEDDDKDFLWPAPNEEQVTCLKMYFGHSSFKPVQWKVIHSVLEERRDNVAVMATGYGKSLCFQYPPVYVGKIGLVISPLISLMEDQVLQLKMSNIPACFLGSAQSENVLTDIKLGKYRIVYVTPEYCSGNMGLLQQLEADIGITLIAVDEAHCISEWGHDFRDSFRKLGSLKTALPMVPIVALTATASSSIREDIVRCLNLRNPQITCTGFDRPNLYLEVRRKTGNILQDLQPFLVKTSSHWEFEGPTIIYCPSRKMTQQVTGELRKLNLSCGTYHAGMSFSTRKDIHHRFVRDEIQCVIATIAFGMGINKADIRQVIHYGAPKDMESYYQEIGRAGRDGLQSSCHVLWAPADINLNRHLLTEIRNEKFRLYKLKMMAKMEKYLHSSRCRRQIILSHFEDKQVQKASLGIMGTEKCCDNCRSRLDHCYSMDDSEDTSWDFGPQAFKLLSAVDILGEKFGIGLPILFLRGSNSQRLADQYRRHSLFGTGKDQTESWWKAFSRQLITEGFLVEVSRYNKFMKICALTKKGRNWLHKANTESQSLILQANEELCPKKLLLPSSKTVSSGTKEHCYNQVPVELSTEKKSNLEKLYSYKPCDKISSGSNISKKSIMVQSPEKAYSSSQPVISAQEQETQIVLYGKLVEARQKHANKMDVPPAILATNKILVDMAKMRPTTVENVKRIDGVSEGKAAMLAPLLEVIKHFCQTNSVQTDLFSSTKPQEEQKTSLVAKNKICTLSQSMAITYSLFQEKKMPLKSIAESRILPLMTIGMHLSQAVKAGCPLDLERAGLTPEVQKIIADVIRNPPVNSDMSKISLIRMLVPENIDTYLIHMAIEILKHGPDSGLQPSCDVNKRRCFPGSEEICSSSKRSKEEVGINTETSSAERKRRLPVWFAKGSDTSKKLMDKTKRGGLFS"},
  "source": "PubChem BioAssay AID651768",
  "about": "(National Center for Advancing Translational Sciences (NCATS), 2012)",
  "note": "Among all 360,000 compounds or so, about 1,700 (0.47%) were called active. Inconclusive means that the source gave no clear call. Such entries were picked first, then a sample of the others. The call rests on the fitted dose curve; in most records, active means well fitted inhibition curve with a large enough effect; inconclusive means small, poorly fitted or top-dose-only effect; inactive means no such curve, though single readings can be large or run the other way. Potencies of inconclusive entries are doubtful fits and often do not repeat. On the % scale 0 is the no-effect control and ±100 the full control effect; potency means the concentration at half of the fitted maximal effect.",
  "data": [
    {"biological_target": "Bifunctional 3'-5' exonuclease/ATP-dependent helicase WRN (Homo sapiens) (UniProt Q14191)", "assay": "qHTS for Inhibitors of WRN Helicase; further: nearly all actives have a fitted effect of over 55% in size", "settings": "WRN helicase unwinding, fluorescent forked duplex, kinetic; activity change, negative = inhibition: at 114 µM (top of the series) unless noted", "in_short": "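Enzyme (20 nM final) and test compound sit together 15 min at room temperature before substrate addition. Substrate is a single-forked duplex oligonucleotide (100 nM) labelled with fluorophore and quencher, with 2 mM ATP; helicase unwinding raises red fluorescence, read kinetically.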", "values": [
      {"smiles": "COc1cc(N=c2ssnc2Cl)cc(OC)c1OC", "Potency": "active: 56.2 µM"},
      {"smiles": "COc1ccc(CN2CCNC(=O)C2CC(=O)N(C)Cc2nc(C)cs2)c(OC)c1", "note": "(stereo unspecified)", "Potency": "inactive"},
      {"smiles": "CCCN1C(=O)/C(=C\\C=C2/Sc3ccccc3N2CCO)SC1=S", "Potency": "inactive"},
      {"smiles": "Cc1cccc2[nH]c3c(N4CC=C(c5ccc(F)cc5)CC4)ncnc3c12", "Potency": "inconclusive: 22.4 µM [inhibitor, single point]"},
      {"smiles": "CCCCN(C)C(=O)c1sc(=O)n(Cc2c(C)noc2C)c1C", "Potency": "inactive"},
      {"smiles": "C/C(=N\\NC(=O)CSc1ncccn1)c1ccc2c(c1)OCCO2", "Potency": "inconclusive: 35.5 µM [inhibitor, single point]"},
      {"smiles": "CCOC(=O)Oc1ccc(/C=C2\\N=C(C)OC2=O)cc1", "Potency": "inactive"},
      {"smiles": "COc1ccc(C(=O)NCCSC2CCCCC2)cc1", "Potency": "inconclusive: 10 µM [inhibitor, partial curve]"},
      {"smiles": "CCOc1ccc(C(=O)Nc2ccc(S(=O)(=O)NCC3CCCO3)cc2)cc1OCC", "note": "(stereo unspecified)", "Potency": "inconclusive: 70.8 µM [inhibitor, single point]"},
      {"smiles": "CCn1c(SCC(=O)Nc2cc(C(C)(C)C)nn2-c2ccccc2)nnc1-c1cccs1", "Potency": "inconclusive: 35.5 µM [inhibitor, single point]"},
      {"smiles": "CCN(CC)Cc1cc(O)c(CN(CC)CC)cc1O", "Potency": "active: 50.1 µM"},
      {"smiles": "O=[N+]([O-])c1ccc(Nc2nc(Cl)nc(NCCO)n2)cc1", "Potency": "inactive"},
      {"smiles": "CCOc1cccc2cc(-c3nnc(NCc4ccco4)s3)c(=O)oc12", "Potency": "inconclusive: 39.8 µM [inhibitor, partial curve, poor fit]"},
      {"smiles": "Cc1nc(C(F)(F)F)ccc1C(=O)N1CCCC1(C)C(=O)NCC(C)C", "note": "(stereo unspecified)", "Potency": "inactive"},
      {"smiles": "O=[N+]([O-])c1cc(/C=N/Nc2nc3ccccc3[nH]2)c(O)cc1O", "Potency": "inconclusive: 20 µM [inhibitor, single point]"},
      {"smiles": "CC(C)CCNC(=O)C(c1ccc(O)cc1)N(C(=O)C1COc2ccccc2O1)c1cccc(O)c1", "note": "(stereo unspecified)", "Potency": "inactive"},
      {"smiles": "CCCCCCNC(=O)c1cc(-c2ccco2)nc2ccccc12", "Potency": "active: 39.8 µM"},
      {"smiles": "Cc1cc(NS(=O)(=O)c2ccc(NC(=O)CCCOc3ccccc3C)cc2)nc(C)n1", "Potency": "inconclusive: 28.2 µM [inhibitor, full curve, poor fit]"},
      {"smiles": "COC(=O)c1cc2c(-c3ccccc3)c(C)c3ccccn3c-2c1C(=O)OC", "Potency": "inconclusive: 35.5 µM [inhibitor, full curve]"},
      {"smiles": "N#C/C(=C/c1ccc(C(=O)O)cc1)C(=O)NCc1ccccc1", "activity change, negative = inhibition": "inactive: -34.1% [at 11.6 µM]"},
      {"smiles": "O=C(O)CC(C(=O)O)N1C(=O)/C(=C/c2ccc(-c3nc4ccccc4s3)o2)SC1=S", "note": "(stereo unspecified)", "Potency": "active: 28.2 µM"}
    ]}
  ]
}
